In patent publication US9029092B2, “Solution phase homogeneous assays” (Beckman Coulter, Inc., priority 2009, dated 2015):
Some of these results come from one statement about several compounds together. At least one structure is not confirmed: it was looked up by name or label, or the drawing left a doubt. Some ranges recur; such a range may be that of the whole group of compounds.

Tested on: biotinylated HRP
Assay: Model system for selection of SSIA (AK1/streptavidin BSA microparticles + biotinylated HRP)
Type: biochemical, horseradish
Details: vs control; SSIA 100 μM final
Procedure: The model system uses a microparticle conjugated to BSA (bovine serum albumin) labeled with a […] and acridan ketenedithioacetal chemiluminescent label (AK1) as the chemiluminescent-labeled sbp, and biotinylated HRP as the activator-labeled specific binding pair. In the model system, varying amounts of Btn-HRP is added to the chemiluminescent-labeled specific binding pair at 0, 1, 10, 100 and 250 ng/mL. Additional unlabeled HRP is added to reach a total HRP of concentration of 500 ng/mL in each reaction mixture. The unlabeled HRP in combination with the activator-labeled sbp was provided to the chemiluminescent-labeled sbp microparticles to emulate sample. A compound for assessment as an SSIA was also added. This reaction mixture of the model system is then triggered by addition of trigger solution in a manner of assays of the present disclosure.
To prepare the chemiluminescent-labeled sbp on microparticles, Bovine Serum Albumin (BSA) was biotinylated with 4× molar excess of biotin-LC-sulfoNHS (Pierce Biotechnology Inc., Rockford, Ill., USA). Unbound reactants were removed via desalting or dialysis. The biotin-BSA was then reacted with a 5× molar excess of an NHS ester of acridan ketenedithioacetal AK1 in 20 mM sodium phosphate pH 7.2: DMSO 75:25, v/v) followed by desalting in the same buffer. The dual labeled (biotin and AK1) BSA was then coupled with tosyl activated M280 microparticles (Invitrogen Corporation, Carlsbad, Calif., USA) in a 0.1M borate buffer pH 9.5 at a concentration of about 20 μg of labeled BSA per mg of microparticles for 16-24 h at 40° C. After coupling the microparticles were stripped for 1 h at 40° C. with 0.2 M TRIS base, 2% SDS, pH˜11. The stripping process was repeated one additional time. Microparticles were then suspended in a 0.1% BSA/TRIS buffered saline (BSA/TBS) buffer and streptavidin (SA) was added at approximately 15 μg SA per mg microparticles. Streptavidin was mixed with the microparticles for 45-50 min at room temperature. The microparticles were then washed three times and suspended in the same BSA/TBS.
HRP, (Roche Diagnostics, Indianapolis, Ind., USA) was biotinylated with 4× molar excess of biotin-LC-sulfoNHS (Pierce Biotechnology Inc., Rockford, Ill., USA). Alternatively, 25× molar excess of biotin-PEO4-NHS may be used. Unbound reactants were removed via desalting or dialysis.
Each SSIA compound for assessment was solubilized in Buffer II at a concentration at least 10× of the working strength concentration.
25 μl of 1 mg/ml of dual-labeled (biotin and AK1) BSA M280 particles were mixed with 45 μl of working concentration SSIA in Buffer II. […] The reaction mixture was incubated for 30 min at 37° C., then 100 μL of trigger solution was added and the light intensity recorded. […]

## Cc1c(O)cc2c(c1C)O[C@](C)(CCC[C@H](C)CCC[C@H](C)CCCC(C)C)CC2 [(+)-gamma-Tocopherol]
  reduction in S0 signal: 75-88%

## COc1cc(/C=C/C(=O)O)ccc1O [Ferulic acid]
  reduction in S0 signal: 75-88%

## O=c1[nH]c(=O)c2[nH]c(=O)[nH]c2[nH]1 [Uric Acid]
  reduction in S0 signal: 75-88%

## (+/−)-alpha-Tocopherol
  reduction in S0 signal: 75-88%
